PubChem BioAssay AID1259308 – NCATS | 2017

Assay: 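Genes whose loss raises luciferase production in HEK293 cells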 (primary screen)
Cell system: human HEK293 embryonic kidney cells stably expressing firefly luciferase (HEK-CMV-Luc2-Hygro)
Reagent: single siRNA against human genes, 0.8 pmol siRNA per well
Time to read-out: 72 h
Measured: 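Luciferase light (ONE-Glo) measured on one replicate plate set and viability (CellTiter-Glo) on the other, scaled to a negative control siRNA, with robust z-scores and luciferase per cell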
Reading the numbers: total luciferase, z-score: higher = more reporter protein produced
Call rule: 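Active when the median/MAD z-score for overall luciferase is greater than 3; a gene was taken forward for validation with new siRNAs if at least two of its three siRNAs passed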
Calls: active = raised luciferase; inactive = no rise
This is an unselected part of about 59,000 reagents tested. Of all reagents, about 1,510 (2.6%) are marked active. 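Calls use total luciferase alone and ignore viability, so some active siRNAs may act by altering cell number.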 The numbers tell different reagents against one gene apart. Further read-outs or replicates are left out here.

total luciferase, z-score, by target and reagent
SERPINI2: #1 0.791 inactive; #2 -0.118 inactive; #3 0.474 inactive
WTAP: #1 -1.82 inactive; #2 -2.69 inactive; #3 -2.66 inactive
CXXC5: #1 -0.213 inactive; #2 -0.646 inactive; #3 -0.27 inactive
ADD3: #1 -2.33 inactive; #2 -0.952 inactive; #3 -0.598 inactive
SRP54: #1 0.133 inactive; #2 -1.25 inactive; #3 -0.728 inactive
CTCF: #1 -0.484 inactive; #2 -0.861 inactive; #3 0.138 inactive
LRIT2: #1 -0.925 inactive; #2 -1.31 inactive; #3 0.363 inactive
RASL10B: #1 0.952 inactive; #2 -0.463 inactive; #3 -0.431 inactive

Reformatted: results already given
target,reagent,"total luciferase, z-score",Outcome
CTCF,1,-0.484,inactive
CTCF,2,-0.861,inactive
